Measurements published in article doi:10.1101/2021.04.08.438944.
Positions count from the first letter of the chain named. Results are given in words; binding and its absence hold for the method and conditions named. In cells and extracts the contact can be indirect. Some entries that bind do so weakly or less than the wild type. Sequences can lack the tags named with a protein.

What was measured:
[1] = target: T1, DNAJB14-HPDmut1 tagged with FLAG (human) (UniProt Q8TBM8); test: co-IP
T1 sequence: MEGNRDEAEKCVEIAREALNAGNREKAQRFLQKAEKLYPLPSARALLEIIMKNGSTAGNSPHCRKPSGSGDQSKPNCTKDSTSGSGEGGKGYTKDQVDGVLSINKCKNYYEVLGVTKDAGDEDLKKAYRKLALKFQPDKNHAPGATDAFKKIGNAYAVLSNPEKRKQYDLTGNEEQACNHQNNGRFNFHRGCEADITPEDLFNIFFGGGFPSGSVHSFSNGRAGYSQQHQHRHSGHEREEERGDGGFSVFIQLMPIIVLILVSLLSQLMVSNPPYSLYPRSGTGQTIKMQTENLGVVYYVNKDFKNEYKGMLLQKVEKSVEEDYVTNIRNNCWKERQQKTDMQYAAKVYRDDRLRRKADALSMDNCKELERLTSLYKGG

[2] = target: T2, DNAJB14-FL tagged with FLAG (human) (UniProt Q8TBM8); test: co-IP
T2 sequence: T1 sequence with Q136H

binding [1]: binds
binding [2]: binds
B1: DNAJB12-FL tagged with mOrange (protein, UniProt Q9NXW2-1 1-375)
chain: MESNKDEAERCISIALKAIQSNQPDRALRFLEKAQRLYPTPRVRALIESLNQKPQTAGDQPPPTDTTHATHRKAGGTDAPSANGEAGGESTKGYTAEQVAAVKRVKQCKDYYEILGVSRGASDEDLKKAYRRLALKFHPDKNHAPGATEAFKAIGTAYAVLSNPEKRKQYDQFGDDKSQAARHGHGHGDFHRGFEADISPEDLFNMFFGGGFPSSNVHVYSNGRMRYTYQQRQDRRDNQGDGGLGVFVQLMPILILILVSALSQLMVSSPPYSLSPRPSVGHIHRRVTDHLGVVYYVGDTFSEEYTGSSLKTVERNVEDDYIANLRNNCWKEKQQKEGLLYRARYFGDTDMYHRAQKMGTPSCSRLSEVQASLHG
